Measurements reported in PubChem BioAssay AID1053208 (Peter MacCallum Cancer Centre, 2014).
Shown is an unselected part of about 17,000 reagents. 788 of all reagents (4.7%) were called active. 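Calls rest on z-score classes alone; an extra cut-off of viability at most 70% of control was not applied to them.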 A number with no mark means an inactive call. The numbers tell different reagents against one gene apart. Not all columns of the deposit are shown.

- Test: 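Genes whose silencing cuts survival of bone tumour cells only with doxorubicin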 (primary screen)
- System: mouse osteosarcoma cells, early-passage culture from an engineered mouse model of fibroblastic bone tumour
- Reagents: siRNA pool against mouse genes, 40 nM
- Time to read-out: about 120 h (48 h before drug, then 72 h with drug)
- Treatment: doxorubicin 100 nM for 72 h, roughly 30-40% inhibitory dose
- Detection: 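Luminescent ATP signal taken as viability with or without 100 nM doxorubicin for 72 h; mean of two wells set against non-targeting siRNA and turned into robust z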
- Reading the numbers: viability z-score with doxorubicin: higher = more viable cells under doxorubicin; viability z-score without drug: higher = more viable cells with knock-down alone
- Call rule: 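Called active if knock-down leaves viability unchanged without drug (z within -2 to 2) but lowers it with doxorubicin (z at or under -2)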

Against Or51aa5, the values are combined z-score class no change with or without drug; viability z-score with doxorubicin 0.22; viability z-score without drug -0.84.
Depletion of Stxbp6 resulted in: combined z-score class no change with or without drug; viability z-score with doxorubicin -1.35; viability z-score without drug -1.35.
After knock-down of Llgl2 the results were combined z-score class no change with or without drug; viability z-score with doxorubicin -1.35; viability z-score without drug -0.67.
Usp18 gave combined z-score class no change with or without drug; viability z-score with doxorubicin 0; viability z-score without drug 0.84.
Rnase1 scored combined z-score class no change with or without drug; viability z-score with doxorubicin -1.35; viability z-score without drug -1.18.
Bahcc1 gave combined z-score class low cell count without drug only; viability z-score with doxorubicin 0.22; viability z-score without drug -6.91.
For 1700055D18Rik the deposit lists combined z-score class no change with or without drug; viability z-score with doxorubicin 0.67; viability z-score without drug 1.18.
Against Mrpl32 the deposit lists combined z-score class no change with or without drug; viability z-score with doxorubicin 1.35; viability z-score without drug 0.34.
For Zbbx, the entry reads combined z-score class no change with or without drug; viability z-score with doxorubicin 0.67; viability z-score without drug -0.34.
F2rl2 showed combined z-score class no change with or without drug; viability z-score with doxorubicin -0.67; viability z-score without drug -1.18.
After knock-down of Fibp, the screen gave combined z-score class no change with or without drug; viability z-score with doxorubicin 0.45; viability z-score without drug 0.67.
Knock-down of Arl4d #1 resulted in: combined z-score class no change with or without drug; viability z-score with doxorubicin -1.35; viability z-score without drug -0.84.
Arl4d #2 scored combined z-score class no change with or without drug; viability z-score with doxorubicin 0; viability z-score without drug -1.85.

Limited to “viability z-score without drug” (2 entries from above):
Mrpl32: 0.34
Zbbx: -0.34
